In the supplement of paper PMC7661543:
Differences between knockout arms are mostly noise.

Test system: BT-20
Assay: relative cell number vs DMSO control (72 h) (% of DMSO); higher = less growth inhibition (more cells)
Procedure: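 QMAP-Seq: a pool of 5 breast cancer cell lines (ZR-75-1, SKBR3, HCC-38, MDA-MB-231, BT-20), each carrying 12 doxycycline-inducible Cas9 sgRNA perturbations (11 knockouts plus non-targeting sgNT), was treated with compounds for 72 h at four 10-fold doses (10 nM-10 uM or 1 nM-1 uM range). Barcodes were amplified and sequenced, and cell number was interpolated from 293T spike-in standard curves. The result is expressed as % of the median of DMSO wells. Two biological replicates.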

COc1cc(OC)c(/C=C/S(=O)(=O)Cc2ccc(OC)c(NCC(=O)O)c2)c(OC)c1 [Rigosertib]
Conditions	relative cell number
sgRNA knockout: sgATF3, 10 nM	104
sgRNA knockout: sgATF3, 100 nM	62.7
sgRNA knockout: sgATF3, 1000 nM	28.8
sgRNA knockout: sgATF3, 10000 nM	30.3
sgRNA knockout: sgATF4, 10 nM	96.6
sgRNA knockout: sgATF4, 100 nM	63.8
sgRNA knockout: sgATF4, 1000 nM	38.2
sgRNA knockout: sgATF4, 10000 nM	33.8
sgRNA knockout: sgATF6, 10 nM	98.6
sgRNA knockout: sgATF6, 100 nM	57.8
sgRNA knockout: sgATF6, 1000 nM	32
sgRNA knockout: sgATF6, 10000 nM	32.6
sgRNA knockout: sgATG7, 10 nM	85.2
sgRNA knockout: sgATG7, 100 nM	58.63
sgRNA knockout: sgATG7, 1000 nM	36.7
sgRNA knockout: sgATG7, 10000 nM	34.3
sgRNA knockout: sgERN1, 10 nM	85.3
sgRNA knockout: sgERN1, 100 nM	68
sgRNA knockout: sgERN1, 1000 nM	31.4
sgRNA knockout: sgERN1, 10000 nM	31.8
sgRNA knockout: sgHSF1, 10 nM	91.1
sgRNA knockout: sgHSF1, 100 nM	70.6
sgRNA knockout: sgHSF1, 1000 nM	25.76
sgRNA knockout: sgHSF1, 10000 nM	34.2
sgRNA knockout: sgHSF2, 10 nM	82.8
sgRNA knockout: sgHSF2, 100 nM	57.5
sgRNA knockout: sgHSF2, 1000 nM	34.4
sgRNA knockout: sgHSF2, 10000 nM	29.8
sgRNA knockout: sgKEAP1, 10 nM	93.5
sgRNA knockout: sgKEAP1, 100 nM	55
sgRNA knockout: sgKEAP1, 1000 nM	31.5
sgRNA knockout: sgKEAP1, 10000 nM	33.8
sgRNA knockout: sgNFE2L2, 10 nM	83.4
sgRNA knockout: sgNFE2L2, 100 nM	63.5
sgRNA knockout: sgNFE2L2, 1000 nM	33
sgRNA knockout: sgNFE2L2, 10000 nM	34.4
sgRNA knockout: sgSLC35F2, 10 nM	93.1
sgRNA knockout: sgSLC35F2, 100 nM	65
sgRNA knockout: sgSLC35F2, 1000 nM	41
sgRNA knockout: sgSLC35F2, 10000 nM	37.4
sgRNA knockout: sgXBP1, 10 nM	102
sgRNA knockout: sgXBP1, 100 nM	62.6
sgRNA knockout: sgXBP1, 1000 nM	35.1
sgRNA knockout: sgXBP1, 10000 nM	39.7

CN(Cc1cnc2nc(N)nc(N)c2n1)c1ccc(C(=O)N[C@@H](CCC(=O)O)C(=O)O)cc1 [Methotrexate]
Conditions	relative cell number
sgRNA knockout: sgATF3, 10 nM	113
sgRNA knockout: sgATF3, 100 nM	67.9
sgRNA knockout: sgATF3, 1000 nM	49
sgRNA knockout: sgATF3, 10000 nM	47.3
sgRNA knockout: sgATF4, 10 nM	97
sgRNA knockout: sgATF4, 100 nM	70.7
sgRNA knockout: sgATF4, 1000 nM	53.2
sgRNA knockout: sgATF4, 10000 nM	38.8
sgRNA knockout: sgATF6, 10 nM	101
sgRNA knockout: sgATF6, 100 nM	67.4
sgRNA knockout: sgATF6, 1000 nM	62.5
sgRNA knockout: sgATF6, 10000 nM	47
sgRNA knockout: sgATG7, 10 nM	115
sgRNA knockout: sgATG7, 100 nM	72.3
sgRNA knockout: sgATG7, 1000 nM	50.9
sgRNA knockout: sgATG7, 10000 nM	47.3
sgRNA knockout: sgERN1, 10 nM	102
sgRNA knockout: sgERN1, 100 nM	63.9
sgRNA knockout: sgERN1, 1000 nM	59.45
sgRNA knockout: sgERN1, 10000 nM	43.7
sgRNA knockout: sgHSF1, 10 nM	102
sgRNA knockout: sgHSF1, 100 nM	62.12
sgRNA knockout: sgHSF1, 1000 nM	47.2
sgRNA knockout: sgHSF1, 10000 nM	48.7
sgRNA knockout: sgHSF2, 10 nM	99.8
sgRNA knockout: sgHSF2, 100 nM	60
sgRNA knockout: sgHSF2, 1000 nM	52.8
sgRNA knockout: sgHSF2, 10000 nM	50.7
sgRNA knockout: sgKEAP1, 10 nM	102
sgRNA knockout: sgKEAP1, 100 nM	62.8
sgRNA knockout: sgKEAP1, 1000 nM	51.26
sgRNA knockout: sgKEAP1, 10000 nM	40.1
sgRNA knockout: sgNFE2L2, 10 nM	112
sgRNA knockout: sgNFE2L2, 100 nM	59.8
sgRNA knockout: sgNFE2L2, 1000 nM	58.3
sgRNA knockout: sgNFE2L2, 10000 nM	43.9
sgRNA knockout: sgSLC35F2, 10 nM	104
sgRNA knockout: sgSLC35F2, 100 nM	72.9
sgRNA knockout: sgSLC35F2, 1000 nM	50.2
sgRNA knockout: sgSLC35F2, 10000 nM	45.8
sgRNA knockout: sgXBP1, 10 nM	112
sgRNA knockout: sgXBP1, 100 nM	70.7
sgRNA knockout: sgXBP1, 1000 nM	56.4
sgRNA knockout: sgXBP1, 10000 nM	44.5

S=c1nc[nH]c2nc[nH]c12 [6-Mercaptopurine]
Conditions	relative cell number
sgRNA knockout: sgATF3, 10 nM	108
sgRNA knockout: sgATF3, 100 nM	75.3
sgRNA knockout: sgATF3, 1000 nM	91.3
sgRNA knockout: sgATF3, 10000 nM	66.2
sgRNA knockout: sgATF4, 10 nM	99.1
sgRNA knockout: sgATF4, 100 nM	80.1
sgRNA knockout: sgATF4, 1000 nM	83.6
sgRNA knockout: sgATF4, 10000 nM	66.6
sgRNA knockout: sgATF6, 10 nM	90.8
sgRNA knockout: sgATF6, 100 nM	93.2
sgRNA knockout: sgATF6, 1000 nM	95
sgRNA knockout: sgATF6, 10000 nM	76.8
sgRNA knockout: sgATG7, 10 nM	104
sgRNA knockout: sgATG7, 100 nM	85.3
sgRNA knockout: sgATG7, 1000 nM	95.9
sgRNA knockout: sgATG7, 10000 nM	68
sgRNA knockout: sgERN1, 10 nM	108
sgRNA knockout: sgERN1, 100 nM	89.8
sgRNA knockout: sgERN1, 1000 nM	101
sgRNA knockout: sgERN1, 10000 nM	68
sgRNA knockout: sgHSF1, 10 nM	106
sgRNA knockout: sgHSF1, 100 nM	93
sgRNA knockout: sgHSF1, 1000 nM	109
sgRNA knockout: sgHSF1, 10000 nM	72.8
sgRNA knockout: sgHSF2, 10 nM	103
sgRNA knockout: sgHSF2, 100 nM	80.7
sgRNA knockout: sgHSF2, 1000 nM	85.2
sgRNA knockout: sgHSF2, 10000 nM	69.4
sgRNA knockout: sgKEAP1, 10 nM	86.3
sgRNA knockout: sgKEAP1, 100 nM	91.9
sgRNA knockout: sgKEAP1, 1000 nM	80.7
sgRNA knockout: sgKEAP1, 10000 nM	68.5
sgRNA knockout: sgNFE2L2, 10 nM	85.2
sgRNA knockout: sgNFE2L2, 100 nM	77.3
sgRNA knockout: sgNFE2L2, 1000 nM	92.9
sgRNA knockout: sgNFE2L2, 10000 nM	79.3
sgRNA knockout: sgSLC35F2, 10 nM	97.3
sgRNA knockout: sgSLC35F2, 100 nM	93.4
sgRNA knockout: sgSLC35F2, 1000 nM	88.1
sgRNA knockout: sgSLC35F2, 10000 nM	74.2
sgRNA knockout: sgXBP1, 10 nM	102
sgRNA knockout: sgXBP1, 100 nM	87.8
sgRNA knockout: sgXBP1, 1000 nM	96
sgRNA knockout: sgXBP1, 10000 nM	78.8
